Test results reported in patent US10881656B2, “HIF inhibitors and use thereof” (The General Hospital Corporation, priority 2008, dated 2021).
At least one compound was matched to its structure with a doubt left.

Legend:
786-O cells = assay: Global translation (35S loading control, polysome analysis); type: cell-based, human; details: 24 hours
Procedure: DMSO-, rapamycin- or PGJ2-treated 786-O cells were harvested from 10 cm plates for each polysomal analysis. Confluent cells were harvested and lysed in 300 μL ofRSB [10 mmol/L NaCl, 10 mmol/L Tris-HCl (pH 7.4), 15 mmol/L MgCl2] containing 100 μg/mL heparin, 1.2% Triton X-100, and 0.12% deoxycholate. Nuclei were pelleted for 3 min in a microcentrifuge at 4° C. The 300-μL extract was layered over 11.5 mL of a 15% to 45% (wt/wt) sucrose gradient with a 0.5-mL cushion of 45% sucrose. The gradients were centrifuged at 37,000 rpm for 2.5 h in an SW 41 (Beckman) rotor at 4° C. After centrifugation, the A260 was continuously monitored and recorded across the gradient using a Foxy Jr. Density Gradient fractionation system and UA-6 UV/VIS Detector (ISCO, Inc.).
To determine if PGJ2 decreases translation of the HIF2a message, the inventors evaluated the synthesis rate and stability of the newly synthesized HIF2a by an ^35S-methionine pulse chase experiment on PGJ2 or vehicle only DMSO treated 786-O cells. […] Loading control is 1/1000th of the cell lysate used in the respective immunoprecipitation directly loaded into an SDS-PAGE gel.

HIF = details: published; cited from earlier work

Compound | ribosomes actively engaged in translation (polysome analysis) (786-O cells) | Biological Activities (HIF) | Mechanism of HIF inhibtion (HIF)
CO[C@H]1C[C@@H]2CC[C@@H](C)[C@@](O)(O2)C(=O)C(=O)N2CCCC[C@H]2C(=O)O[C@H]([C@H](C)C[C@@H]2CC[C@@H](O)[C@H](OC)C2)CC(=O)[C@H](C)/C=C(\C)[C@@H](O)[C@@H](OC)C(=O)[C@H](C)C[C@H](C)/C=C/C=C/C=C/1C [rapamycin, reference compound] | attenuated it |  | 
COC1=C2C[C@@H](C)C[C@H](OC)[C@H](O)[C@@H](C)/C=C(\C)[C@H](OC(N)=O)[C@@H](OC)/C=C\C=C(/C)C(=O)NC(=CC1=O)C2=O [Geldanamycin] |  | Tumor suppression | HSP90 inhibitor-HIF
